Article PMC9015699
These are yes or no findings as the source states them, for the method shown. Binding seen in cells or lysates may run through a third protein. Here binding means that the protein was enriched with, or labelled near, the bait; the list need not be complete. For some of these results: No binding means not detected with the bait. For some of these results: Sequences can lack the tags named with a protein.

T1: GFP-ATG5 K130R (mouse) (UniProt Q99J83)
T1 sequence: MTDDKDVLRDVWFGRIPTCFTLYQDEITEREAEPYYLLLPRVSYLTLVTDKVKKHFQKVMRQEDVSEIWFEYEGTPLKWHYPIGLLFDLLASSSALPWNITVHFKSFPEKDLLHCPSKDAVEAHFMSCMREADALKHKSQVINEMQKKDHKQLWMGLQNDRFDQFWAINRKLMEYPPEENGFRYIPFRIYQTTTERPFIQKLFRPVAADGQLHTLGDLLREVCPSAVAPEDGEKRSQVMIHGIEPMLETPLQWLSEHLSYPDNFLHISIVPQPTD

B1: TECPR1 (tectonin beta-propeller repeat containing 1) (protein, UniProt Q80VP0 1-1166)
chain: MPTSVLWAVDLFGRVYTLSTAGQYWELCKDVQLEFKRVSAATQCCWGIAGDNQVYLYVCSSDVPIRHREEAYENQRWNPMGGFCEKLLPSDRWPWSDVSGLQHRPLDGVALPSPHWEWESDWYVDENFGGEPTEKGGWTYAMDFPATYTRDKKWNSCVRRRKWIRYRRYKSRDSWAKIPSKDDPKELPDPFNDLSVGGWEITEEPVGRLSVWAVSLQGKVWYREDVSHPNPEGSSWSLVETPGEVVQISCGPHDLIWATLWEGQALVREGVCRNNPKGSYWSMVEPPGSENGIMHVSAGVSVVWAITKDRKVWFRRGVNSHNPCGTSWIEMVGEMTMVNVGLNDQVWGISCEDRAVYFRQGVTPSELSGKTWKAIVVGRESDRSHSGSSSSLLSAGCFFGDEVRGSGTESAPSDTDASLEVERQGPEQPLPKEALDNSTNLKGSLSKGHETSGNTDHSTENACLTEGKEKAPETSRSDECRGPASTPAELPWTNIDLKEPKKVSNQPAAGFPETAGLSSLGLFPMGMEEPYGADDHPLWAWVSGGACAVEAGSTLKWFTIQSGLSPSVQTLSLSITPAQTAAWRKQIFQQLTERTKRELESFRHYEQAVEQSVWVKTGALQWWCDWKPHKWVDVRVALEQFTGHDGARDSILFIYYVVHEEKKYLHVFLNEVTVLVPVLNEAKHSFALYTPERTRQRWPVRLAAATEQDMNDWLALLSLSCCESRKVHGRPSPQAIWSVTCKGDIFVSEPSPDLEARERLLPCDQMFWRQMGGHLRIIEANSRGVVWGIGYDHTAWVYTGGYGGGCFQGLASSTSNIYTQSDVKSVYIYENQRWNPVTGYTSRGLPTDRFMWSDVTGLQECTKAGTKPPSLQWTWVSDWYVDFSVPGGTDQEGWQYASDFPASYHGYKTMKDFVRRRCWARKCKLVTSGPWLEVAPITLSDVSIIPESAHADGRGHNVALWAVSDKGDVLCRLGVSELNPAGSSWLHVGTDQPFASVSIGACYQVWAVARDGSAFYRGSVSPSQPAGDCWYHIPSPPKQKLTQVSVGQTSVYALDENGNLWYRAGITPSYPQGSSWEHVSNNVRKVSVGPLDQVWVIANKVQGSHGLSRGTVCRRMGVQPREPKGQGWDYGIGGGWDHISVRANATRVPRNMSRDREARGPGPVCC
B2: ATG101 (protein, UniProt Q9D8Z6 1-218)
chain: MNCRSEVLEVSVEGRQVEEAMLAVLHTVLLHRSTGKFHYKKEGTYSIGTVGIQDVDCDFIDFTYVRVSSEELDRALRKVVGEFKDALRNSGGDGLGQMSLEFYQKKKSRWPFSDECIPWEVWTVKVHVVALATEQERQICREKVGEKLCEKIINIVEVMSRHEYLPKMPTQSEVDNVFDTGLRDVQPYLYKISFQITEALGTSVTTTMRRLIKDTLAL
B3: ATG13 (protein, UniProt Q91YI1 1-516)
chain: METELSSQDRKDLDKFIKFFALKTVQVIVQARLGEKICTRSSSSPTGSDWFNLAIKDIPEVTHEAKKALSGQLPAVGRSMCVEISLKTSEGDSMELEIWCLEMNEKCDKEIKVSYTVYNRLSLLLKSLLAITRVTPAYRLSRKQGHEYVILYRIYFGEVQLNGLGEGFQTVRVGTVGTPVGTLTLSCAYRINLAFMSTRQFERTPPIMGIIIDHFVDRPYPSSSPMHPCNYRTAEDAGVAYPSVEDSQEVCTTSFSTSPPSQLSSSRLSYQPAVLGLGSADLAYPVVFTAGLNTTHAHQLMVPGKEGGVTLAPSHPTHGAQADPERLVMHMPSDGTHCAATPSSSEDTETVSNSSEGRASPHDILETIFVRKVGAFVNKPINQVTVTSLDIPFAMFAPKNLELEDADPMVNPPESPETTSPLHGSLHSDGSSGGSGGSTHDDFVMIDFKPAFSKDDILPMDLGTFYREFQNPPQLSSLSIDFGAQSMAEDLDSLPEKLAVHEKNVREFDAFVETLQ
B4: ULK1 (protein, UniProt O70405 1-1051)
chain: MEPGRGGVETVGKFEFSRKDLIGHGAFAVVFKGRHREKHDLEVAVKCINKKNLAKSQTLLGKEIKILKELKHENIVALYDFQEMANSVYLVMEYCNGGDLADYLHTMRTLSEDTVRLFLQQIAGAMRLLHSKGIIHRDLKPQNILLSNPGGRRANPSNIRVKIADFGFARYLQSNMMAATLCGSPMYMAPEVIMSQHYDGKADLWSIGTIVYQCLTGKAPFQASSPQDLRLFYEKNKTLVPAIPRETSAPLRQLLLALLQRNHKDRMDFDEFFHHPFLDASTPIKKSPPVPVPSYPSSGSGSSSSSSSASHLASPPSLGEMPQLQKTLTSPADAAGFLQGSRDSGGSSKDSCDTDDFVMVPAQFPGDLVAEAASAKPPPDSLLCSGSSLVASAGLESHGRTPSPSPTCSSSPSPSGRPGPFSSNRYGASVPIPVPTQVHNYQRIEQNLQSPTQQQTARSSAIRRSGSTTPLGFGRASPSPPSHTDGAMLARKLSLGGGRPYTPSPQVGTIPERPSWSRVPSPQGADVRVGRSPRPGSSVPEHSPRTTGLGCRLHSAPNLSDFHVVRPKLPKPPTDPLGATFSPPQTSAPQPCPGLQSCRPLRGSPKLPDFLQRSPLPPILGSPTKAGPSFDFPKTPSSQNLLTLLARQGVVMTPPRNRTLPDLSEASPFHGQQLGSGLRPAEDTRGPFGRSFSTSRITDLLLKAAFGTQASDSGSTDSLQEKPMEIAPSAGFGGTLHPGARGGGASSPAPVVFTVGSPPSGATPPQSTRTRMFSVGSSSSLGSTGSSSARHLVPGACGEAPELSAPGHCCSLADPLAANLEGAVTFEAPDLPEETLMEQEHTETLHSLRFTLAFAQQVLEIAALKGSASEAAGGPEYQLQESVVADQISQLSREWGFAEQLVLYLKVAELLSSGLQTAIDQIRAGKLCLSSTVKQVVRRLNELYKASVVSCQGLSLRLQRFFLDKQRLLDGIHGVTAERLILSHAVQMVQSAALDEMFQHREGCVPRYHKALLLLEGLQHTLTDQADIENIAKCKLCIERRLSALLSGVYA
B5: ATG16L2 (protein, UniProt Q6KAU8 1-623)
chain: MAGPGAPCDPCAPAAVWKRHIVRQLRHRDRTQKALFLELVPAYNHLLEKAELLAKFSEKLKSEPKDAISTRHEDWREEVSGTGPDQVSSPASLRVKWQQEKKGLQLVCGEMAYQVVKKSAALDTLQSQLEERQDRLEALQACVVQLQEARAQQSRQLEERQAENAAQREAYETLLQQAVHQEAALRRLQEEARDLLEQLVQRKARAAAERNLRNERRERANQALVSQELKKAAKRTVSISEIPNTLEDGTKEETVALAPAALPEFSESETCEKWKRPFRSASATSLTLSRCVDVVKGLLDFKKRRGHSVGGAPEQRYQSIPVCVSAQIPSQAQDVLDAHLSEVNAVCFGPNSSLLATGGADRLIHLWNVVGGRLEANQTLEGAGGSITSVDFDPSGSQVLAATYNQAAQLWKVGETQSKETLSGHKDKVTAAKFKLTRHQAVTGSRDRTVKEWDLGRAYCSRTINVLSYCNDVVCGDHIIISGHNDQKIRFWDSRGPHCIQVIPVQGRVTSLHLSYDQLHLLSCSRDNTLKVIDLRISNIRQVFRADGFKCSSDWTKAVFSPDRSYALAGSSNGDLYIWDVNTGKLETSLQGPHCTAVNAVAWCFSGNHVVSVDQGRKVVLWH

biological target: T1, GFP-ATG5 K130R (mouse); assay: affinity purification with mass spectrometry; GFP-Trap immunoisolation from lysates of SILAC-labelled atg5-/- MEFs stably expressing GFP, WT GFP-ATG5 or GFP-ATG5 K130R, starved 1 h; LC-MS/MS; hits: 2 or more peptides, >2-fold enrichment over GFP

| binding | Binder |
| --- | --- |
| binds | B1 |
| no binding | B2 |
| no binding | B3 |
| binds | B4 |
| binds | B5 |

biological target: wild-type GFP-ATG5 (mouse) (UniProt Q99J83); assay: as above

| binding | Binder |
| --- | --- |
| binds | B1 |
| no binding | B2 |
| no binding | B3 |

biological target: wild-type GFP-ATG5 (mouse) (UniProt Q99J83); assay: affinity purification with mass spectrometry; GFP-Trap SILAC proteomics from atg3-/- MEFs stably expressing GFP, WT GFP-ATG5 or GFP-ATG5 K130R, after nutrient starvation; hits: peptide count 2 or more, >2-fold enriched over GFP and GFP-ATG5 K130R; bait expressed alongside endogenous ATG5

| binding | Binder |
| --- | --- |
| binds | B1 |
| binds | B5 |
